In the supplement of paper PMC3741180, “A Novel High Throughput Biochemical Assay to Evaluate the HuR Protein-RNA Complex Formation” (PLoS ONE, 2013):
Values joined by “and” are separate entries in the source; they are usually repeats but may differ in a detail not shown here. Identical values can stand only once. Some of the results follow. Repeats in this data set agree poorly, so a single value says little. Bridge positions count the residues as written; N and C are the ends. Square brackets hold non-standard residues; d marks the D form. Peptide text beside a SMILES is read from it. * marks the point of attachment. Ileψ(thiazoline)Cys = CC[C@H](C)[C@H](N)C1=N[C@H](C(=O)*)CS1; dOrn = NCCC[C@@H](N)C(=O)O

Amino acid sequences for entries named in this document (tags omitted).
UniProt Q15717, whole entry: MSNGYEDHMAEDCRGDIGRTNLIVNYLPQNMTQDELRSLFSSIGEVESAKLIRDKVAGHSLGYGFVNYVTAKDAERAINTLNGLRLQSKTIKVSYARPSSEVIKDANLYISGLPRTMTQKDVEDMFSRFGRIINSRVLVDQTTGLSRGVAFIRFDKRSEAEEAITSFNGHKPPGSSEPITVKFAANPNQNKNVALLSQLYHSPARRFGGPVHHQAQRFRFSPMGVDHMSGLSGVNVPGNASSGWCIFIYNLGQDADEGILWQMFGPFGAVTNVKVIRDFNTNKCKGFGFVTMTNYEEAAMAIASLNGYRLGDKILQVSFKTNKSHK

molecular target: HuR (ELAVL1) - TNFalpha ARE RNA complex (UniProt Q15717); assay: AlphaScreen HuR-RNA complex signal Z-score relative to positive (Bi-TNF, DMSO) controls (Z-score (SD units of positive control)); higher = more complex signal; details: screen stage: primary screen; compound concentration: 25 nM

| SMILES | AlphaScreen HuR-RNA complex signal Z-score |
| --- | --- |
| CNC[C@H](O)c1ccc(O)c(O)c1 | 5.52 |
| Cn1c(=O)c2nc(C3CCCC3)[nH]c2n(C)c1=O | 1.72 |
| Cc1c[nH]c2ccccc12 | 1.81 |
| O=c1cc(-c2ccc(O)cc2)oc2ccc(O)cc12 | -0.0291 |
| CC(=O)NS(=O)(=O)c1ccc(NC(=O)c2ccccc2C(=O)O)cc1 | 0.505 |
| CC[C@H](C)[C@H](N)C1=N[C@H](C(=O)N[C@@H](CC(C)C)C(=O)N[C@H](CCC(=O)O)C(=O)N[C@H](C(=O)N[C@H]2CCCCNC(=O)[C@H](CC(N)=O)NC(=O)[C@@H](CC(=O)O)NC(=O)[C@H](Cc3cnc[nH]3)NC(=O)[C@@H](Cc3ccccc3)NC(=O)[C@H]([C@@H](C)CC)NC(=O)[C@@H](CCCN)NC2=O)[C@@H](C)CC)CS1 ({Ileψ(thiazoline)Cys}-L[dE]IK[dOrn]I[dF]H[dD]N; lactam 4-C) | 0.291 |
| O=C(CCc1ccc(O)cc1)c1c(O)cc(O)cc1O | 1.27 |
| COc1ccc(-c2cc(=O)c3cc(OC)ccc3o2)cc1 | 1.06 |
| CN(C)CCOC(C)(c1ccccc1)c1ccccn1 (configuration not stated) | -2.02 |
| C=CC(C1=CC(=O)C(OC)=CC1=O)c1ccc(OC)cc1 (configuration not stated) | 2.13 |
| C[C@H]1[C@H](C)CC[C@]2(CO)CC[C@]3(C)C(=CC[C@@H]4[C@@]5(C)CC[C@H](O)C(C)(C)[C@@H]5CC[C@]43C)[C@H]12 | 2.25 |
| Oc1cc(O)c2c(c1)O[C@H](c1cc(O)c(O)c(O)c1)[C@H](O)C2 | 1.94 |
| C(=C\c1ccccc1)/CN1CCN(C(c2ccccc2)c2ccccc2)CC1 | 0.733 |
| CC(=O)OCC(=O)[C@@]1(O)CCC2C3CCC4=CC(=O)C=C[C@]4(C)[C@@]3(F)[C@@H](O)C[C@@]21C (some centres not stated) | 1.42 |
| C[C@@H]1C[C@H]2[C@@H]3CCC4=CC(=O)C=C[C@]4(C)[C@@]3(F)[C@@H](O)C[C@]2(C)[C@@]1(O)C(=O)COP(=O)(O)O | -3.25 |
| CCN(CC)CCNC(C(=O)OCCC(C)C)c1ccccc1 (configuration not stated) | 0.689 |
| OCCN(CCO)c1nc(N2CCCCC2)c2nc(N(CCO)CCO)nc(N3CCCCC3)c2n1 | -1.99 |
| O=C(O)c1ccccc1C(=O)Nc1ccc(S(=O)(=O)Nc2nccs2)cc1 | 1.23 |
| C[N+](C)(C)CC(=O)O | 0.261 |
| C[C@]12CC[C@@H]3c4ccc(OC(=O)c5ccccc5)cc4CC[C@H]3[C@@H]1CC[C@@H]2O | 1.46 |
| CN1CCN(C(c2ccccc2)c2ccccc2)CC1 | -1.75 |
| C[C@H](CCC(=O)O)[C@H]1CC[C@H]2[C@@H]3[C@@H](O)C[C@@H]4C[C@H](O)CC[C@]4(C)[C@H]3CC[C@]12C | -1.09 |
| O=C(CCCN1CCN(c2ccccn2)CC1)c1ccc(F)cc1 | 3.21 |
| NC[C@@H]1O[C@@H](O[C@H]2[C@H](O)[C@@H](O[C@H]3O[C@H](CO)[C@@H](O)[C@H](N)[C@H]3O)[C@H](N)C[C@@H]2N)[C@@H](O)[C@H](O)[C@H]1O | 0.312 |
| N[C@@H](Cc1cc(I)c(Oc2ccc(O)c(I)c2)c(I)c1)C(=O)O [LIOTHYRONINE (L- isomer) SODIUM] | 0.187 |

| SMILES | AlphaScreen HuR-RNA complex signal Z-score |
| --- | --- |
| N[C@@H](Cc1cc(I)c(Oc2ccc(O)c(I)c2)c(I)c1)C(=O)O | -0.681 |
| CN1CCC(=C2c3ccccc3Sc3ccccc32)CC1 | 0.652 |
| Nc1c2ccccc2nc2ccccc12 | -2.99 |
| COC1=CC(=O)C(C(=O)c2ccccc2)=CC1=O | 2.33 |
| CC(O)Cn1cnc2c1c(=O)n(C)c(=O)n2C (configuration not stated) | 2.01 |
| N[C@@H](Cc1c[nH]c2ccccc12)C(=O)O | -1.33 |
| O=C(OOC(=O)c1ccccc1)c1ccccc1 | 0.6 |
| CCC1(C)OC(=O)N(C)C1=O (configuration not stated) | 5.18 |
| NC(=O)CCCCC1CCSS1 (configuration not stated) | 2.15 |
| NS(=O)(=O)c1cc2c(cc1C(F)(F)F)NCNS2(=O)=O | -3.56 |
| O=C(/C=C/c1ccc(O)cc1)c1ccc(O)cc1O | -0.25 |
| Cc1c(NC(=O)c2cccnc2)c(=O)n(-c2ccccc2)n1C | 2.26 |
| CS(=O)(=O)OCCCCOS(C)(=O)=O | 0.312 |
| OCc1c[nH]c2ccccc12 | 1.52 |
| COc1ccc(-c2coc3c(O)c(O)c(OC)cc3c2=O)cc1 | 0.38 |
| CN1C(=O)CC[C@H]1c1cccnc1 | 1.17 |
| CC[C@@H]1C(=O)OC[C@@H]1Cc1cncn1C | 0.146 and 0.34 |
| Cc1cc(O)c(C=O)c(O)c1C(=O)O | 3.24 |
| CC(=O)N[C@H]1[C@H]([C@H](O)[C@H](O)CO)OC(O)(C(=O)O)C[C@@H]1O (mixture of isomers) | -3.16 |
| COc1cc(OC)c2c(c1Cl)O[C@@]1(C(=O)CC(=O)C[C@H]1C)C2=O | 2.7 |
| CCN(CC)CC(=O)Nc1c(C)cccc1C | -0.261 |
| c1ccc2c(CC3=NCCN3)cccc2c1 | 5.56 |
| CC(=O)OCC(=O)[C@@]12OC(C)(C)O[C@@H]1C[C@H]1[C@@H]3C[C@H](F)C4=CC(=O)C=C[C@]4(C)[C@@]3(F)[C@@H](O)C[C@@]12C | -2.25 |
| NC(=O)NCCC[C@H](N)C(=O)O | 1.96 |
| O=c1oc2c(O)c(O)cc3c(=O)oc4c(O)c(O)cc1c4c23 | 0.686 |

| SMILES | AlphaScreen HuR-RNA complex signal Z-score |
| --- | --- |
| O=C1NS(=O)(=O)c2ccccc21 | 1.45 |
| NS(=O)(=O)c1cc2c(cc1Cl)NC(C1CC3C=CC1C3)NS2(=O)=O (configuration not stated) | 0.439 |
| CC(=O)CC(c1ccccc1)c1c(O)c2ccccc2oc1=O (configuration not stated) | -1.35 |
| Oc1ccc([C@H]2Oc3cc(O)cc(O)c3C[C@H]2O)cc1 | 1.47 |
| COc1cccc2c1C(=O)c1c(O)c3c(c(O)c1C2=O)C[C@@](O)(C(C)=O)C[C@@H]3O[C@H]1C[C@H](N)[C@H](O)[C@H](C)O1 | -2.85 |
| O=C(O[C@@H]1Cc2c(O)cc(O)cc2O[C@@H]1c1cc(O)c(=O)c2c(O)c(O)cc([C@H]3Oc4cc(O)cc(O)c4C[C@H]3OC(=O)c3cc(O)c(O)c(O)c3)c2c1)c1cc(O)c(O)c(O)c1 | -0.397 |
| OCc1ccccc1O[C@@H]1O[C@H](CO)[C@@H](O)[C@H](O)[C@H]1O | 0.501 |
| CC(=O)NS(=O)(=O)c1ccc(N)cc1 | 11.6 |
| Nc1cc(N2CCCCC2)nc(N)[n+]1[O-] | 2.58 |
| CC1=C(/C=C/C(C)=C/C=C/C(C)=C/CO)C(C)(C)CCC1 | 1.15 |
| O=C(O)c1ccccc1OP(=O)(O)O | 0.635 |
| COC(=O)c1c(C)cc(OC(=O)c2c(C)cc(O)c(C=O)c2O)c(C)c1O | 2.39 |
| C/C=C(/C(=C/C)c1ccc(O)cc1)c1ccc(O)cc1 | -2.03 |
| Cc1ncc([N+](=O)[O-])n1CC(C)O (configuration not stated) | 2.18 |
| COc1ccc([C@@H](C)C(=O)c2ccc(O)cc2O)cc1 | 1.46 |
| CC1(C)S[C@@H]2[C@H](NC(=O)[C@H](N)c3ccccc3)C(=O)N2[C@H]1C(=O)O | 0.315 |
| C=C[C@H]1CN2CC[C@H]1C[C@H]2[C@H](O)c1ccnc2ccc(OC)cc12 | 23.4 |
| O=C(/C=C/c1ccccc1)c1ccc(O[C@@H]2O[C@H](CO)[C@@H](O)[C@H](O)[C@H]2O)cc1O | 2.57 |
| O=c1n(CCCN2CCN(c3cccc(Cl)c3)CC2)nc2ccccn12 | 1.35 |
| CC1/C(=N/O)C[C@@H]2C[C@H]1C2(C)C (some centres not stated) | 1.61 |
| O=C(CCNNC(=O)c1ccncc1)NCc1ccccc1 | 3.56 |
| Cc1nc2ccccn2c(=O)c1CCN1CCC(C(=O)c2ccc(F)cc2)CC1 | 1.75 |
| CSc1nc2cc(Cl)c(Oc3cccc(Cl)c3Cl)cc2[nH]1 | 0.803 |
| NC(=O)c1cnccn1 | 9.97 |
| CC(=O)c1ccc[nH]1 | 1.26 |

| SMILES | AlphaScreen HuR-RNA complex signal Z-score |
| --- | --- |
| CC(=O)O[C@H]1C(=O)[C@@]2(C)[C@H]([C@H](OC(=O)c3ccccc3)[C@]3(O)C[C@H](OC(=O)[C@H](O)[C@@H](NC(=O)c4ccccc4)c4ccccc4)C(C)=C1C3(C)C)[C@]1(OC(C)=O)CO[C@@H]1C[C@@H]2O | 0.93 |
| COc1cccc2c1C(=O)c1c(O)c3c(c(O)c1C2=O)C[C@@](O)(C(=O)CO)C[C@@H]3O[C@H]1C[C@H](N)[C@@H](O)[C@H](C)O1 | 0.5 |
| COc1ccc2c(c1)CC[C@@H]1[C@@H]2CC[C@]2(C)[C@@H](O)CC[C@@H]12 | 0.993 |
| O[C@H]1[C@H](O)[C@@H](O)[C@H](O)[C@@H](O)[C@H]1O | -1.29 |
| C/C=C/c1ccc(OC)cc1 | 0.653 |
| C=C(C)[C@@H]1CC[C@]2(CO)CC[C@]3(C)[C@H](CC[C@@H]4[C@@]5(C)CC[C@H](O)C(C)(C)[C@@H]5CC[C@]43C)[C@@H]12 | 1.02 |
| Oc1cccc(O)c1 | -1.9 |
| Cc1cc(O)cc(C)c1Cl | -0.268 |
| CC(=O)N(c1onc(C)c1C)S(=O)(=O)c1ccc(N)cc1 | 0.209 |
| C=C1CCC(C2CC(=O)OC2=O)C(=O)CCC2C1CC2(C)C (configuration not stated) | -0.303 |
| CC(N)CCCC(C)(C)O (configuration not stated) | 3.15 |
| CN1CCCN=C1/C=C/c1cccc(O)c1 | 1.48 |
| CC(C)OC(=O)C(C)(C)Oc1ccc(C(=O)c2ccc(Cl)cc2)cc1 | 0.479 |
| CC=CC1=C(C(=O)O)N2C(=O)[C@@H](NC(=O)[C@H](N)c3ccc(O)cc3)[C@H]2SC1 | -1.34 |
| COC(=O)c1c(C)cc(OC)cc1O | 2.15 |
| O=C1c2ccccc2C(=O)C1c1ccc(Br)cc1 | 0.973 |
| CC1(C)C(O[C@@H]2OC[C@@H](O)[C@H](O)[C@H]2O)CC[C@]23CC24CC[C@]2(C)[C@@H]([C@@]5(C)CC[C@@H](C(C)(C)O)O5)[C@H](O)C[C@@]2(C)C4C[C@@H](O[C@@H]2O[C@H](CO)[C@@H](O)[C@H](O)[C@H]2O)C13 (some centres not stated) | -1.07 |
| CC(=O)Oc1cc(-c2coc3cc(OC(C)=O)c(OC(C)=O)c(OC(C)=O)c3c2=O)cc(OC(C)=O)c1OC(C)=O | 1.46 |
| c1coc(CNc2ncnc3[nH]cnc23)c1 | 0.101 |
| CCOc1ccc2nc(S(N)(=O)=O)sc2c1 | 0.542 |
| O=C(O)c1cc(/N=N/c2ccc(S(=O)(=O)Nc3ccccn3)cc2)ccc1O | 27.6 |
| CC(=O)O[C@@H]1C=C[C@]2(C)C(C[C@@H](OC(C)=O)[C@]3(C)C4=CC(=O)O[C@H](c5ccoc5)[C@@]4(C)CCC23)C1(C)C (some centres not stated) | 1.83 |
